Reference: the supplement of paper PMC7666118
The other results are listed elsewhere or left out.

The chains behind the UniProt entries cited, without tags or fusion partners. Where a name states a change or a piece, a line headed by the entry shows the natural chain unless it says otherwise.
UniProt Q9H3S7: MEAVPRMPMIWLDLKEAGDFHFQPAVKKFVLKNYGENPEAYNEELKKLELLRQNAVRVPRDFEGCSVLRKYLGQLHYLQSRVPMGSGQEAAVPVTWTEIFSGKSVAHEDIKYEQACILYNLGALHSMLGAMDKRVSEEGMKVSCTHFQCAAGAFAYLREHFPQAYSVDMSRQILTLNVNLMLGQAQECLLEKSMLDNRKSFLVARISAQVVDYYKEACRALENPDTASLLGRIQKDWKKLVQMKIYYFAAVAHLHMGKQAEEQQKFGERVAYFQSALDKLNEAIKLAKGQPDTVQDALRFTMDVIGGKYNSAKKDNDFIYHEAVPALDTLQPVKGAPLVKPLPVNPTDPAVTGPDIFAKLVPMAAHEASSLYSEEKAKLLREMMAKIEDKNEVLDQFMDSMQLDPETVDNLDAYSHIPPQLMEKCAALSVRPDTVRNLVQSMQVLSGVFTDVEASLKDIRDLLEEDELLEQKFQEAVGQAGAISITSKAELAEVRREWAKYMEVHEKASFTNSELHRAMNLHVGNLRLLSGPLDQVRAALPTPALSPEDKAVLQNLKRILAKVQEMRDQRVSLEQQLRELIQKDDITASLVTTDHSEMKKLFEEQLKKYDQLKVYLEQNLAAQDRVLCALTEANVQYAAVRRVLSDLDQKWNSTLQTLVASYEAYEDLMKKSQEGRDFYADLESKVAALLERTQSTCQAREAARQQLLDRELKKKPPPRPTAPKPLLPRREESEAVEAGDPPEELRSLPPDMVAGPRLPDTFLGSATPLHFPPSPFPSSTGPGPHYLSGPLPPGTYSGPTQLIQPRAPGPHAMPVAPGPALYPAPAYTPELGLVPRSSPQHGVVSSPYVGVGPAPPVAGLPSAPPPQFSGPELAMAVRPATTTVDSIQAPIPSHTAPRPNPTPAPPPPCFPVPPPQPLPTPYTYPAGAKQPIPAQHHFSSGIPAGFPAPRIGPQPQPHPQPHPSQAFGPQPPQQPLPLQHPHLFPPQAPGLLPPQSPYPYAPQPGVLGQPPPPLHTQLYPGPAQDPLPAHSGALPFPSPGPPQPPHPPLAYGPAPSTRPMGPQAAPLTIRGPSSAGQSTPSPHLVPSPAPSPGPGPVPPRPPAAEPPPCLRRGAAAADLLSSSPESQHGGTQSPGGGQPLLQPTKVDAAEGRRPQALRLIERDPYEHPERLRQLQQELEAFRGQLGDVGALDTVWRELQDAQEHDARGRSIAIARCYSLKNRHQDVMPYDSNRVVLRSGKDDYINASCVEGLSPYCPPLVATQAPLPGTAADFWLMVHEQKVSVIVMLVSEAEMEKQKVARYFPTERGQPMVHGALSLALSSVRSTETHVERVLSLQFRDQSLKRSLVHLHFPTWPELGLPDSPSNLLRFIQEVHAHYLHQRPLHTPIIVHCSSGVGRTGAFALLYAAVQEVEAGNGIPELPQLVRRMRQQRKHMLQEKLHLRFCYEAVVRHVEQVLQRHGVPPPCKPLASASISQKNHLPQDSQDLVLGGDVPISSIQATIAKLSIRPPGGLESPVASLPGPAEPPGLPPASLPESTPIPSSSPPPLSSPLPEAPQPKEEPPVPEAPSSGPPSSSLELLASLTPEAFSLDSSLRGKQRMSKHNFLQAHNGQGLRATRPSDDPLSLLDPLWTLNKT
UniProt P06737: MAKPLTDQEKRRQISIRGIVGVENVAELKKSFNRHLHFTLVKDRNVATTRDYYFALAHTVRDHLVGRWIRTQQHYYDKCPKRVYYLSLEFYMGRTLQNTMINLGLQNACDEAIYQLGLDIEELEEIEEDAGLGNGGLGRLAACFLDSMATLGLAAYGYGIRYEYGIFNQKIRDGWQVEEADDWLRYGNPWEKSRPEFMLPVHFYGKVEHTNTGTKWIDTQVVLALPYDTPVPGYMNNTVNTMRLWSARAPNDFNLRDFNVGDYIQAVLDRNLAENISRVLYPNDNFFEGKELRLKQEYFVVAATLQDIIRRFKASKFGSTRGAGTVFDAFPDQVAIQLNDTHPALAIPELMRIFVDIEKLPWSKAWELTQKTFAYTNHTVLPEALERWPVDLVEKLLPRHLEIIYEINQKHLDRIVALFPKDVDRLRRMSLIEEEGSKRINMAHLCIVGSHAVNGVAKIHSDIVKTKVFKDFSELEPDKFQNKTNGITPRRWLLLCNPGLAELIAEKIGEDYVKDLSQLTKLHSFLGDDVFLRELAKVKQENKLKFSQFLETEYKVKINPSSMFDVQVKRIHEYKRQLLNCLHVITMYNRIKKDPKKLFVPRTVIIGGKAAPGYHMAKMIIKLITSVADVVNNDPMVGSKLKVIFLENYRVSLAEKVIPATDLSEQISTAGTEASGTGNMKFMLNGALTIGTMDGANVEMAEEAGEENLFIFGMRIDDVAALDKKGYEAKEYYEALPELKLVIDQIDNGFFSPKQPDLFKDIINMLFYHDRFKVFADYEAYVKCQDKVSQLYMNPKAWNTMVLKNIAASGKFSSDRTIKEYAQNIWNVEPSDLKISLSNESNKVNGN
UniProt O60256: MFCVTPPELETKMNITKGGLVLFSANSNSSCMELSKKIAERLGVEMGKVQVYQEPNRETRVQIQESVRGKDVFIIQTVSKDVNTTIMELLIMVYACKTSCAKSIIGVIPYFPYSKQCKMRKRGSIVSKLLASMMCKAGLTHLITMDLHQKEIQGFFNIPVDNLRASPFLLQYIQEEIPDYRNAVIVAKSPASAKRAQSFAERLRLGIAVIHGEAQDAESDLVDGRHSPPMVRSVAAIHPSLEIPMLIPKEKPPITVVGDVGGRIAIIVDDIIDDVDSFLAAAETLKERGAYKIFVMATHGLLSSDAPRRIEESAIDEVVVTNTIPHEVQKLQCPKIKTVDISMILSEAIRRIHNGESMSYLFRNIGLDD
UniProt P62333, whole entry: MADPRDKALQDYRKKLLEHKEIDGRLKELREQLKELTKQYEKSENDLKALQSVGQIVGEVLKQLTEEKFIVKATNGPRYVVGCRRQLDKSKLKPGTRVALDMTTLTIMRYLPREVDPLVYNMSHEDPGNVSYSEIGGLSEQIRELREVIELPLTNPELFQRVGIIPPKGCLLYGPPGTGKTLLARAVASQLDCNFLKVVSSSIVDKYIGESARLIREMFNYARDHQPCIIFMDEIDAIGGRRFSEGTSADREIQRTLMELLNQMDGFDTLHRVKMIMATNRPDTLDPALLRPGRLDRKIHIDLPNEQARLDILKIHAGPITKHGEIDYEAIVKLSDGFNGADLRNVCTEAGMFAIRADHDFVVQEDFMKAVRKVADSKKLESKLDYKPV
UniProt Q06323: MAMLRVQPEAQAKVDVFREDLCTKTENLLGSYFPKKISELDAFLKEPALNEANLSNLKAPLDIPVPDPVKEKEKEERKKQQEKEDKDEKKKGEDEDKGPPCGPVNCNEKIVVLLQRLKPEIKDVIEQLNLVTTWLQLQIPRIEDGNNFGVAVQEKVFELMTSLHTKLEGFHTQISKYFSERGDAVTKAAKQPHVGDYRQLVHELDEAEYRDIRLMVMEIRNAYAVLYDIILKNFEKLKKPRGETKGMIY
UniProt Q9BZE2: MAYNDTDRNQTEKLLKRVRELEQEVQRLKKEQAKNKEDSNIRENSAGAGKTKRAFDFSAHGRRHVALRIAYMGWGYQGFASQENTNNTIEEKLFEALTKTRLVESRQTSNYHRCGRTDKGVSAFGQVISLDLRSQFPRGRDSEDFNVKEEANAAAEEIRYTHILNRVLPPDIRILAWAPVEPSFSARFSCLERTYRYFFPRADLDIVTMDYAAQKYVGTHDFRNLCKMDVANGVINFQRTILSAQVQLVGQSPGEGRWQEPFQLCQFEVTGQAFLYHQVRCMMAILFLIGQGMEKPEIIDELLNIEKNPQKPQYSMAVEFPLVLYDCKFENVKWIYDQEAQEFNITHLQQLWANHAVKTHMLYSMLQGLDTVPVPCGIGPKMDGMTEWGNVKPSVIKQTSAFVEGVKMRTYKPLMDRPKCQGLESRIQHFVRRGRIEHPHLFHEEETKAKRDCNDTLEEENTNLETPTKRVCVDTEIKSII
UniProt P61019: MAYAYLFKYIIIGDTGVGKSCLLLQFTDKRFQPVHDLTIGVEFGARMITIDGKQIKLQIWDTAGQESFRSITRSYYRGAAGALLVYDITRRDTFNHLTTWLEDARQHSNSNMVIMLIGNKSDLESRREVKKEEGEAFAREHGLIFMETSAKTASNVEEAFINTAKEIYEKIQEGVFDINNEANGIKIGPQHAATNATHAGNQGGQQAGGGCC
UniProt Q99638: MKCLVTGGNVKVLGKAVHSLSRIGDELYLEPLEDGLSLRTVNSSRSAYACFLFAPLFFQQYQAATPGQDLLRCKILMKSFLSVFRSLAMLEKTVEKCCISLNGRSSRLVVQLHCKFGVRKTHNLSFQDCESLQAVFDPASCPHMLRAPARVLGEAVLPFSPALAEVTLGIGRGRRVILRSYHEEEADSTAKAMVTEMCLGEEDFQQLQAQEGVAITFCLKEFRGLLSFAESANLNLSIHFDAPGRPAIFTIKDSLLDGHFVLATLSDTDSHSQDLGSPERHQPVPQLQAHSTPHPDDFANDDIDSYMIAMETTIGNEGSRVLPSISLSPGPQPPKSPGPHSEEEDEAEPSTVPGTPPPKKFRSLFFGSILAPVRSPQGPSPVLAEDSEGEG
UniProt Q96LA8, whole entry, looked up: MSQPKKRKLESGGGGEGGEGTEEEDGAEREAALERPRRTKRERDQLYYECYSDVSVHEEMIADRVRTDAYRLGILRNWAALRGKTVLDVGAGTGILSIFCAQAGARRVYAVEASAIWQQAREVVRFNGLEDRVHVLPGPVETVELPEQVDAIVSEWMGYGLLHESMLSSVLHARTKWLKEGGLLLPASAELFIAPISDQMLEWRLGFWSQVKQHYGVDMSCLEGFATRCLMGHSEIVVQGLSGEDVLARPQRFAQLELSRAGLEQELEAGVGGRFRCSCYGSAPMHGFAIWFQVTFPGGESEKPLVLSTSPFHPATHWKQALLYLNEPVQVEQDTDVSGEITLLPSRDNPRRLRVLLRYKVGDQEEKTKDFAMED
UniProt Q15907: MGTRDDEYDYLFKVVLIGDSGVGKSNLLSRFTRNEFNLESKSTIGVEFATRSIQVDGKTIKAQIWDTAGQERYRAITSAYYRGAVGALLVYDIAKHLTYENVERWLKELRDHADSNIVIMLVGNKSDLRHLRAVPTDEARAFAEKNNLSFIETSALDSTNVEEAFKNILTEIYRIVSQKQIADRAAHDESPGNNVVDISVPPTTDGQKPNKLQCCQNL
UniProt P25788: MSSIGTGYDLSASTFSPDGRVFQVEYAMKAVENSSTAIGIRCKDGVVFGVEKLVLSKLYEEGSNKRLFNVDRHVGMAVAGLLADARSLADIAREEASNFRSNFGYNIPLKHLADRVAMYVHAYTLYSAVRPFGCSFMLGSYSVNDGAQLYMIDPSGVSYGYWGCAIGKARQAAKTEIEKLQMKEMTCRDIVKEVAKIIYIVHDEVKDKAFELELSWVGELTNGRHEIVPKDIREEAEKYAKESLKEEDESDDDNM
UniProt P61026: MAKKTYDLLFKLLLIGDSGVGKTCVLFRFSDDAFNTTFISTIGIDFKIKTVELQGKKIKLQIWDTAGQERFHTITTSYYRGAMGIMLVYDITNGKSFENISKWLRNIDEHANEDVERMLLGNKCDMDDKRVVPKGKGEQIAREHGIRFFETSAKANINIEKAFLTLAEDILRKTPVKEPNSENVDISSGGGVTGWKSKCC
UniProt Q9Y617: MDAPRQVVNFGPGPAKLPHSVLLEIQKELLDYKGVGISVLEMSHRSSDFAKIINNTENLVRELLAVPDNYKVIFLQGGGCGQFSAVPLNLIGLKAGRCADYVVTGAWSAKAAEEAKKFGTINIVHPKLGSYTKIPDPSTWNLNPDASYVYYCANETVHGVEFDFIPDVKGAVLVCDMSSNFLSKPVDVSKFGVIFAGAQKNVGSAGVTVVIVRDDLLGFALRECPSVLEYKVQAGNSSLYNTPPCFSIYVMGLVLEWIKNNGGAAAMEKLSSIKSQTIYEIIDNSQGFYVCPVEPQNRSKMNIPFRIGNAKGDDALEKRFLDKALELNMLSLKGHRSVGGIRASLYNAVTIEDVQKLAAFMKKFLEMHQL
UniProt O43502: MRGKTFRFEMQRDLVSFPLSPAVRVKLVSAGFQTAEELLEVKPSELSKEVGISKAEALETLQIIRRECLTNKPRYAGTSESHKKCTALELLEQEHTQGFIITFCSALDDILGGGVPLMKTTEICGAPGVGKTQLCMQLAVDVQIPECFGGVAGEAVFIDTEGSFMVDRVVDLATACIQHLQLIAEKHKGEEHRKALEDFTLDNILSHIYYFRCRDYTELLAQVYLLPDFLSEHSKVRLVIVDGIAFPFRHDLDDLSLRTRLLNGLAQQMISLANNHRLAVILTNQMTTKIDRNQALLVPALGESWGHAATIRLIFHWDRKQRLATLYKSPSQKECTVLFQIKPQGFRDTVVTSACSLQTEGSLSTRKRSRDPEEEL
UniProt Q9Y3L5: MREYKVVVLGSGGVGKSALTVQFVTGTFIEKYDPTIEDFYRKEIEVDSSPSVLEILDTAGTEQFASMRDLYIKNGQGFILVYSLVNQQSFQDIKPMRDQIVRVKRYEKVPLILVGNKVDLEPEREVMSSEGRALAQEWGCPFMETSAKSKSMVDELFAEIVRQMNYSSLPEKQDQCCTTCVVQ

compound: COc1ccc(Cn2ccc3ccc(C(=O)NO)cc32)cc1; assay: dose-dependent thermal stabilisation call (2D-TPP, DLPTP, 10% FDR) (binary (1 = stabilised)); higher = stabilised by the compound; details: system: HL-60 intact cells; concentration range 0.04-10 µM

Target	dose-dependent thermal stabilisation call
PSPH (UniProt P78330)	inactive: 0
QDPR (UniProt P09417)	inactive: 0
PTPN23 (UniProt Q9H3S7)	inactive: 0
RAC2 (UniProt P15153)	inactive: 0
PRPF38A (UniProt Q8NAV1)	inactive: 0
PYGL (UniProt P06737)	inactive: 0
PRPSAP2 (UniProt O60256)	inactive: 0
PSMC6 (UniProt P62333)	inactive: 0
PSME1 (UniProt Q06323)	inactive: 0
PUS3 (UniProt Q9BZE2)	inactive: 0
RAB2A (UniProt P61019)	inactive: 0
RB1 (UniProt P06400)	inactive: 0
RAD9A (UniProt Q99638)	inactive: 0
PTPRG (UniProt P23470)	inactive: 0
PRMT6 (UniProt Q96LA8)	inactive: 0
RAB11B (UniProt Q15907)	inactive: 0
RAB21 (UniProt Q9UL25)	inactive: 0
PUM1 (UniProt Q14671)	inactive: 0
PSMA3 (UniProt P25788)	inactive: 0
RBM45 (UniProt Q8IUH3)	inactive: 0
RAB10 (UniProt P61026)	inactive: 0
PSMB3 (UniProt P49720)	inactive: 0
RBL1 (UniProt P28749)	inactive: 0
PSAT1 (UniProt Q9Y617)	inactive: 0
QRICH1 (UniProt Q2TAL8)	inactive: 0
RAD51C (UniProt O43502)	inactive: 0
RAP2C (UniProt Q9Y3L5)	inactive: 0

Part of the list above, set out differently.

| Target | dose-dependent thermal stabilisation call |
| --- | --- |
| RAD9A (UniProt Q99638) | inactive: 0 |
| PTPRG (UniProt P23470) | inactive: 0 |
| PRMT6 (UniProt Q96LA8) | inactive: 0 |
| RAB11B (UniProt Q15907) | inactive: 0 |
| RAB21 (UniProt Q9UL25) | inactive: 0 |
| PUM1 (UniProt Q14671) | inactive: 0 |
| PSMA3 (UniProt P25788) | inactive: 0 |
| RBM45 (UniProt Q8IUH3) | inactive: 0 |
